Experimental data reported in patent US20240091307A1, “COMBINATION THERAPIES OF AMUC_1100 AND IMMUNE CHECKPOINT MODULATORS FOR USE IN TREATING CANCERS” (COMMBIO THERAPEUTICS CO., LTD., priority 2020, published 2024).
Part of at least one peptide drawing is inferred or uncertain, most often the ends. Where a SMILES comes first, the peptide text is derived from it. The star is where a group is joined. X1 = CCCCCCCCCCCCCCCC(=O)OCC(C*)OC(=O)CCCCCCCCCCCCCCC; Palmitoyl = CCCCCCCCCCCCCCCC(=O)*

The chains behind the UniProt entries cited, without tags or fusion partners. Residues count along the entry.
UniProt O60603, 21-784: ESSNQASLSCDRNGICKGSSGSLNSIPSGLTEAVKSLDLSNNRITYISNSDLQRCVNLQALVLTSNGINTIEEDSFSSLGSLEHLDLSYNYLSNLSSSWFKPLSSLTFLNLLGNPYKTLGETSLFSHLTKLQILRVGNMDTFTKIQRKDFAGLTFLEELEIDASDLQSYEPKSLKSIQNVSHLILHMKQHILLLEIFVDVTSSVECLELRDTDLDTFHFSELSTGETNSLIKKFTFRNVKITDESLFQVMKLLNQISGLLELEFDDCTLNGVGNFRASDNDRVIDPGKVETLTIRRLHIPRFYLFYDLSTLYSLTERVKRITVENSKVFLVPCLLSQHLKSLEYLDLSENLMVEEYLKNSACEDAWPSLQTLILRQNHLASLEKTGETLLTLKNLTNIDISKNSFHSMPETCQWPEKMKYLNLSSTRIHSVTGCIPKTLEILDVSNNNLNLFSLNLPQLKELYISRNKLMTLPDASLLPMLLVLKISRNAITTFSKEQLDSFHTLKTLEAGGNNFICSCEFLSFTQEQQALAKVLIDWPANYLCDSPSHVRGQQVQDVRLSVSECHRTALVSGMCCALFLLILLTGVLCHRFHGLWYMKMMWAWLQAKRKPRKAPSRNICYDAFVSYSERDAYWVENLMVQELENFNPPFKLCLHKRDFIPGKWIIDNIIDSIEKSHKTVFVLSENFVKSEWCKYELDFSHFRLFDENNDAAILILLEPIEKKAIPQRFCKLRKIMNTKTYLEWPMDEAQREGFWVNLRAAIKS

Biological target: TLR2 (Homo sapiens, UniProt O60603)
Assay: TLR2 reporter gene assay in HEK293 cells (QUANTI-Blue)
Assay type: cell-based
Design: host or cells: HEK293
Settings: read-out: EC50 for TLR2 activation; HEK293 cells expressing human TLR2 and reporter gene; FIG. 3B
Description: HEK293 cells expressing human TLR2 receptor and its reporter gene (InvivoGen, hkb-htlr2) were seeded in a 96-well plate and treated by […] (31-317) or mutant recombinant Amuc_1100 (31-317, Y289A). The reporter gene activity was detected by QUANTI-Blue™ (InvivoGen, rep-qbs2), and the cell viability was detected by CellTiterGlo (Promega, G7573) by following the reagent kits' instruction. The results were shown in FIG. 3B (Pam3CSK4 is the positive control for TLR2 ligand). […] All agents show no significant impact on cell viability.

`CCCCCCCCCCCCCCCC(=O)N[C@@H](CSCC(COC(=O)CCCCCCCCCCCCCCC)OC(=O)CCCCCCCCCCCCCCC)C(=O)N[C@@H](CO)C(=O)N[C@@H](CCCCN)C(=O)N[C@@H](CCCCN)C(=O)N[C@@H](CCCCN)C(=O)N[C@@H](CCCCN)C(=O)O` (stereo partly shown) [Pam3CSK4, reference compound] (Palmitoyl-C(X1)SKKKK-OH; N-terminus and C-terminus assumed) was tested, and the EC50 was 0.232 µM.
